For this test, the target named is T1, RIPK1 (ectopically expressed) (mouse) (UniProt Q60855).
T1 sequence: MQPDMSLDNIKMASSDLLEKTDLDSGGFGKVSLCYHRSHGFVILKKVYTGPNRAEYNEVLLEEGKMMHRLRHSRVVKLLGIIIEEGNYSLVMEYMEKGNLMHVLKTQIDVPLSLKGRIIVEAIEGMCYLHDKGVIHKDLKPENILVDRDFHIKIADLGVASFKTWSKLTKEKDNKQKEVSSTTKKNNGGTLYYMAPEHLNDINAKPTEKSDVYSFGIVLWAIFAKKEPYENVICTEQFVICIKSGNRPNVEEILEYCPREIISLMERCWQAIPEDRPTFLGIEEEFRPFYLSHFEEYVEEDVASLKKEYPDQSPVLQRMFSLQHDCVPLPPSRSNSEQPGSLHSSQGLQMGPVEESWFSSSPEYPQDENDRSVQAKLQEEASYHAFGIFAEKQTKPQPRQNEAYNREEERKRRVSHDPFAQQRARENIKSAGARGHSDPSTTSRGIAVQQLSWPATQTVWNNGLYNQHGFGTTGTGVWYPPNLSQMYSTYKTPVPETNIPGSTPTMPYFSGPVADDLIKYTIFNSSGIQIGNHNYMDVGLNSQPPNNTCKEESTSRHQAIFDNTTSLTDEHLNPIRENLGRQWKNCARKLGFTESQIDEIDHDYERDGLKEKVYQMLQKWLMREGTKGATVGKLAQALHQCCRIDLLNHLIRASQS
Nature of the test: co-IP; ectopically expressed proteins (HEK293T where stated); lysate in 50 mM Tris-HCl pH 7.5, 150 mM NaCl, 1% NP40, 5% glycerol; antibody overnight at 4 °C, protein A/G agarose; immunoblot. (In general: Immunoblotting shows a protein as a band on a membrane.)

Sequences of proteins named here, by UniProt entry; tags and fusion partners are left off.
UniProt O88907: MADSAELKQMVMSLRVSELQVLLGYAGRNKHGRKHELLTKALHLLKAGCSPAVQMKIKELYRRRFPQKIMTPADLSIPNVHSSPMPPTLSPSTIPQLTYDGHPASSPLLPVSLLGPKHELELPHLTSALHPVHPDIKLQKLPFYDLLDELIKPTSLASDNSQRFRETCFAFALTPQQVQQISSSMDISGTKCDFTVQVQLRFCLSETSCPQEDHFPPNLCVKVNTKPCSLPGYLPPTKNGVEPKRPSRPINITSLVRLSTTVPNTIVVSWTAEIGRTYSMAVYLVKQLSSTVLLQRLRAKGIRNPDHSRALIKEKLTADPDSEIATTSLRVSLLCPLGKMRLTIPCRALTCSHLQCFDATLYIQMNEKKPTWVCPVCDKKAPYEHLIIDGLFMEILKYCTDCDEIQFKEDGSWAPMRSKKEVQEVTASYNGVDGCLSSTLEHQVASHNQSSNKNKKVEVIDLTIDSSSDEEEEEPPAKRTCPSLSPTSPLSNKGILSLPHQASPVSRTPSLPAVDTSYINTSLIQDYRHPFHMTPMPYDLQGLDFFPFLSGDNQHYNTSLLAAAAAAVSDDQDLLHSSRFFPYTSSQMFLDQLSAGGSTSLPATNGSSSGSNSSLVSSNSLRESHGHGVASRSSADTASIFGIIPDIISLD

No constants are given. Whether binding was seen depends on the method and setting. Binding seen in cells or lysates may run through a third protein. Some binding calls cover weakened binding; strength is not graded here.

These results are taken from article PMC9681887.

Turning to “PIAS1 (expressed in HEK293T cells) (from UniProt O88907 1-651) (enzyme)”, the binding result is recorded as “binds”.
